Out of some 53,000 sequences screened, about 3,700 (7%) were called active.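 The calls were made as follows: active = gene knockdowns whose robust z-score for IL-1 alpha signal is at least 2 or at most -2, so actives lie on both sides; inactive = the rest.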 Some of the results follow.

Data on 107 sequences can be found in PubChem BioAssay AID1508600 (Functional Genomics Laboratory (NCATS/FGL), 2020).

A short description of the assay: Components of the Cytosolic LPS Sensing Pathway: Gene Identification via Genome-wide siRNA Screen.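 Also: robust z of the log signal after scaling to non-targeting control siRNA wells of the plate.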 Particulars: RAW264.7 macrophages, IL-1a HTRF, actives lie on both sides, screened at 100 nM (by protocol), cells primed 5 h with Pam3CSK4 first. In a few lines:
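Three distinct siRNAs per gene were tested singly at 100 nM in RAW264.7 macrophages. Following Pam3CSK4 priming and 24 hour LipidA transfection, IL-1a secretion was read by HTRF.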
For the sequence GACCAGAAAUUUAAGUGCUTT against Dnajc30, the z-score is inactive: 1.5.
The figure for GCUCUAGACAUAUGAGGCUTT against Wee2 is inactive: -0.0864.
Regarding GGUUAUUUUGGCUAUAAGATT against Traf3, the z-score was active: -4.
The figure for CCCGCUUAUGUGUCAGCAUTT against Sdhd is inactive: 0.796; for GCCAAGUGAUUGAAAAAACTT against Lnpk it is inactive: -0.423.
With GGACUGGACACUGAAUAUGTT against Tom1l2, the z-score was inactive: -1.71.
The figure for GCCACUGAAAGAUAAAGCATT against Map2 is inactive: -1.06; for CCGCUACGCCAUGUAUAAATT against Upp1 it is inactive: 0.353; for GGAAUAAAGAGGUUAAGGGTT against Olfr38 it is inactive: -0.265.
The figure for GCAGUGCGUUAUCUACUGATT against Rb1 is inactive: 0.865; for GGAGAUCAAGGUGAUUUCGTT against Rs1 it is inactive: 1.55.
The value for CCCAGACCAUACUACGGAUTT against Calb2 was inactive: -1.25; that for GGUUAUAAGCUCCAUCUUGTT against Acy1 was inactive: -0.135.
For the sequence GGAGUAUAUCCUAUUGAUGTT against Sdc2, the z-score is inactive: 0.0615.
The value for GGCUGGUAAAUCCAACUACTT against Xab2 was inactive: 0.117.
GGUUUGUGAACAGCUGUACTT against Gfra3: the z-score is inactive: 0.617.
The figure for GGUGGAAUUAUGCAUGCUATT against Olfr1094 is inactive: 1.45; for GCUGUCAUCCCACUCAAACTT against Ralyl it is inactive: 0.232; for GGAGCACUAAAUCAAAAAATT against Ptprz1 it is inactive: 1.78.
In the case of GGGUCUGUUUCCUUCUGGUTT against Olfr214, the z-score was inactive: -0.117.
Turning to GCUUCGCACCUACAUCAUGTT against Pnmt, the z-score was inactive: 0.862.
Consider CCACUUGUAGUUACAAAACTT against Gatad1, for which the z-score is inactive: 0.701.
The value for GGCCAGUUCUAUGUCAUGATT against Usf2 was active: -2.05; that for “GGAGUUAGUGGUCUCCACUTT against A130023I24Rik” was inactive: -0.535; that for GGCUGACAUCCAGAAUUUCTT against Eci1 was inactive: -0.744.
The figure for GGCAGUUACCUAAAACUAUTT against Polh is inactive: -0.0545; for GGAAAACCUGAUGACAGACTT against Apoc2 it is inactive: -0.581; for GGACUGAUGGAUCCUUCCATT against Krtcap3 it is active: -2.12.
Regarding GGUGAAUAAUAAAUGUCUGTT against Igsf9, the z-score was inactive: 0.375.
The figure for GCACGUAUGGUCAACAUCGTT against Rab2b is inactive: -1.42; for GGUUGUCAAGAAAUUACCCTT against Marchf10 it is active: 2.14; for CGAACUGGCCAAGAGUUACTT against Nras it is inactive: -1.13.
GGGUAACAUCCUCAUGACATT against Zfp282: the z-score was inactive: -0.502.
The value for GGAGAUGAUGCCGUCAUUCTT against Chaf1b was inactive: 1.97; that for GGACUUAGAGAGUAUGGACTT against Ctdp1 was inactive: 0.385; that for CGUCUCAACAGAGUUGGAGTT against Prmt2 was inactive: 1.94.
In the case of GGUACAAUGAAAGUCUCACTT against Cnot6, the z-score was inactive: -0.0743.
On to GGCUUUUCUGAGGAGCACATT against Cbx5, for which the z-score is inactive: 0.504.
The figure for GGUAGUACCGUGUUAAGUGTT against Uchl5 is inactive: -0.208.
The value for CGAGCAAGCUGACAUCUUUTT against Tbc1d4 was inactive: -1.28.
As for CCUAGACGAUGUCAUGAAGTT against Lrrc4b, the z-score was inactive: -0.0195.
The figure for GGAUUGGUUACCAAAUGGUTT against Mapk6 is inactive: -1.67; for GGACACGUUUCUGUGUUGUTT against Tspan32 it is inactive: 0.304; for GGGAUAUCUCGCUUCUAUATT against Jmjd8 it is inactive: -0.136.
As to GGAAAAGAAGACCUACACCTT against Ppp1r1c, the z-score was active: -2.04.
The value for GGAGGUCAGUAGCUUCCUUTT against Krtap26-1 was inactive: -0.912; that for GGGAGUGUGAGGUAUGAACTT against Lrrtm4 was inactive: 0.454.
The figure for GGCUUUUGGAAAGUGGCUUTT against Ankrd46 is inactive: -0.512; for GAUCAGAUGUUUGGGACUUTT against Olfr512 it is active: 2.25; for GGGUCUACCACAUGUACAUTT against Slc16a6 it is active: 2.23.
The figure for “CGAACUGGUAGAAGUUAUUTT against Csgalnact2” is active: 2.07; for GGGUUGUUUGUCUUGUUCGTT against Rspo2 it is inactive: 0.847; for GCUAGUCAAGACCAGUCCGTT against Ttl it is inactive: -1.15.
GGUAUUUGAAGAACGAAGATT against Fbxo16: the z-score was inactive: -0.388.
The value for CGGCUUCAGGAGAACAUUATT against Mmaa was inactive: 1.03.
The figure for GGCGAGAGUAUGAACACUUTT against Evpl is inactive: 0.361.
The value for GGCAUCUCUGUACAGGAAGTT against Mst1r was inactive: -1.17; that for GCGCAUCUAUGAAAAAACATT against Cerk was inactive: -0.471.
With GCCUGCUAGUUAUGUUUCATT against Akirin2, the z-score was inactive: -0.127.
The value for GGUGGUUUUGAUUAAUGGGTT against Hpn was inactive: 0.274; that for GGUGUGGAGUACCGGAUAATT against Arhgdia was inactive: 1.09.
The figure for CCCUAUAAGCAACUUAUGCTT against Tor1aip1 is inactive: -0.115; for GGUGUCUCUCCAGGAUAACTT against Ctrl it is inactive: -0.511; for CGAUAGCAAAGAACCUUAUTT against Mastl it is inactive: 0.307.
The value for GGCAUGAGGAUCGUUAGAUTT against Mccc1 was inactive: -0.266.
Turning to GGAGGUAUUAUCUGAAUUGTT against Utp14a, the z-score is inactive: 1.17.
The figure for GCUCAGAUUUGCUUUAUGATT against Ube2r2 is inactive: 0.367; for GGAGGCAGAGAUAACCUUUTT against Sphk1 it is inactive: 1.62; for GGAUACAUCUGAUUUAAUGTT against Ints10 it is inactive: -1.05.
As to CGAGUGGAAAGAUUUAUAGTT against Ubxn2a, the z-score is inactive: -0.603.
The value for GGUUCUGUACGCCACUUGCTT against Cers1 was inactive: 0.256.
The figure for GGUUUAAUGUUAUAUACGGTT against Olfr606 is active: 2.43; for GGAUGCAUGACACAGACUUTT against Olfr47 it is inactive: 0.492.
The figure for GGUACAUCCAGCACAUGGATT against Rnf25 is inactive: 1.77; for CCAAGGAGACGGAAUACAGTT against Tgfb1 it is inactive: 0.97; for GGACUGUUUACUCAGCUCATT against Slc25a33 it is active: -2.02.
As for GGCCUAAUCUCAGAAGCAUTT against Tead2, the z-score was inactive: -0.11.
For GGGAUUUCUGGAGAAAAUGTT against Csta2, the z-score is inactive: -0.872.
The figure for CCGACUACUUAAGUUUCCGTT against Ppp1r3c is inactive: 0.837.
The value for GGAUACAUUGAAUCAAUGGTT against Cstad was inactive: 0.888.
Regarding GGAAGAUGCCAUCUUACACTT against Borcs7, the z-score is active: 2.5.
The value for GGAAGAGAAUCAAGAGCCATT against Lrrc10 was active: -2.65; that for GGUCCCUAAAAGGUAAACUTT against Rai1 was inactive: 0.228; that for GGUAAUUGGUAGGAAGCUUTT against Olfr836 was inactive: -0.317.
The figure for GCCCAUGUAUUUUUUUCUCTT against Olfr67 is inactive: -1.33; for GGUAAAUAGCUGUCUUGGCTT against Cerk it is inactive: -0.622; for GCUCCAAAUAAGCUUUUUATT against Gabra4 it is inactive: -0.554.
The value for GGAAAUCAGUGCCAACAACTT against Asic5 was inactive: -1.26; that for GGACAGAUGAUGAAGUUGUTT against Hsp90b1 was active: -2.24; that for GGAGCUUCGAAAAAAGUUGTT against Pex16 was inactive: 0.329.
On to GGGUCUUUCUCCUUAGCCCTT against Tmem119, for which the z-score was inactive: -0.483.
The figure for GGUAUUCACUUAAGCAUUUTT against Slco1b2 is inactive: 0.552; for GGGUCUAUUUUAAACCCUUTT against Cnpy4 it is inactive: 0.937; for GGUGUUCUUUGAACUCAAUTT against Pcx it is inactive: 0.615.
The figure for GCAGUGCUCUUAGUAGGACTT against Pfn3 is inactive: 0.868; for GCGAAUGUUACAUGUCAGUTT against Tdpoz5 it is inactive: -0.862; for “GCAUCGUUAUCUUUACACUTT against 5730522E02Rik” it is inactive: 0.344.
The value for UAUUUCUCCCUUGCUGGUATT against Gm5168 was inactive: 1.18; that for GGGUGCUGAACAGUCACAATT against Rab12 was inactive: 0.717; that for GGAUGCAUACGACAUAAACTT against Cdh15 was inactive: -0.116.
Regarding GGUUCUUAAUGCAUUCCCGTT against Cyp2d9, the z-score is inactive: -0.786.
The figure for CGUCCUUAUCCACAACACATT against Sertad3 is inactive: -1.85; for GGGCAAAAACUGUCUGACUTT against Rps3a1 it is inactive: -0.197.
For GGGUAGACAGAAAGCCUUUTT against Olfr111, the z-score was inactive: 0.419.
For the sequence GGAAGGAAGCAGAGAGUUATT against Ndel1, the z-score was active: 2.92.
The figure for GGUAGGAAAUGUUUCAUGUTT against P4ha3 is inactive: 0.137; for CCUUACCAGGAAACAUAUUTT against Dennd10 it is inactive: -1.33.
